## Small-molecule microarray binding calls

Targets (5′ to 3′):
TPP: TPP riboswitch RNA three-way junction, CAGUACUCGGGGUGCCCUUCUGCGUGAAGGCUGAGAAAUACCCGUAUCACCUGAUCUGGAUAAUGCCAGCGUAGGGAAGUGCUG. Hit rate about 0.7% of about 24,000 compounds.
SAM-II: SAM-II riboswitch RNA pseudoknot, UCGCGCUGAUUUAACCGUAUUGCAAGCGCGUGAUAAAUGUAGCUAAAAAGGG. Hit rate about 1% of about 21,000 compounds.

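Each compound is printed as two spots on a slide made to bind it covalently, so it has no test concentration; the read-out is fluorescence of the bound, labelled oligonucleotide. For the PreQ1, TPP and SAM-II riboswitches the laboratory earlier reported (doi:10.1038/s41467-019-09493-3) 1 µM RNA, 2 h, and a rule that included a mean Z-score above 3 (spot signal-to-noise against the whole library), a score well above that on a control array, and duplicate spots agreeing (coefficient of variation under 100). The data file gives only the calls; its cut-offs may differ, and compounds hitting several targets are kept. A missing hit is not proof of no binding, and a hit is not a measured affinity.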 Key: active = hit, inactive = tested without a hit. Compounds were drawn at random from those tested, without regard to their results. A target missing from an entry has no call listed here.

With Cn1c(-c2ccccc2)cnc1NCc1ccccc1 the screen gave TPP: inactive; SAM-II: inactive.
With O=C(c1ccc(CNc2c(N3CCCC3)c(=O)c2=O)cc1)N1CCCCCC1 the screen gave TPP: inactive.
With COc1ccc(C2(C(=O)N3CCC4(CC3)CNC(C(=O)O)C4)CC2)cc1 (stereo not drawn) the screen gave TPP: inactive; SAM-II: inactive.
With O=C(O)c1ccccc1-c1ccccc1C(=O)Nc1ccc2oc(=O)c3ccccc3c2c1 the screen gave TPP: inactive; SAM-II: inactive.
With NC(=O)Nc1n[nH]c(-c2ccccc2)n1 the screen gave TPP: inactive; SAM-II: inactive.
With O=C1c2[nH]nc(-c3ccccc3O)c2C(c2ccc(Cl)cc2)N1CCO (stereo not drawn) the screen gave TPP: inactive.
With CCC(=O)c1ccc(OCC(O)Cn2cnc3ccccc32)cc1 (stereo not drawn) the screen gave TPP: inactive; SAM-II: inactive.
With CCOC(=O)c1c(N)n(-c2cccc(C(F)(F)F)c2)c2nc3ccccc3nc12 the screen gave TPP: inactive; SAM-II: inactive.
With CN(C)c1ccc(NC2CC(=O)N(c3ccc(O)cc3)C2=O)cc1 (stereo not drawn) the screen gave TPP: inactive; SAM-II: inactive.
With Cn1c(C2=C(N)N(c3ccc(F)cc3)CC2=O)nc2ccccc21 the screen gave TPP: inactive.
With O=C(O)C1(Oc2ccc3ccccc3c2)CCN(C2CCNCC2)CC1 the screen gave TPP: inactive; SAM-II: inactive.
With Cc1ccc(CSc2nnc(N)s2)cc1 the screen gave TPP: inactive.
With OC1(CN2CCC(Oc3ccc(F)cc3)CC2)CCCNC1 (stereo not drawn) the screen gave TPP: inactive; SAM-II: inactive.
With O=C(NCCN1CCCC(CO)C1)Nc1cccc(-c2cccc(Cl)c2)c1 (stereo not drawn) the screen gave TPP: inactive; SAM-II: inactive.
With N[C@H]1CN(C(=O)c2ccc3ncccc3c2)C[C@@H]1C1CC1 the screen gave TPP: inactive; SAM-II: inactive.
With C[C@H](O)C(=O)N1CCc2ccc(S(=O)(=O)NCCOc3ccccc3)cc2C1 the screen gave TPP: inactive; SAM-II: inactive.
With COc1ccccc1NC(=O)c1cc2ccccc2cc1O the screen gave TPP: inactive; SAM-II: inactive.
With COc1ccccc1/C=C/C(=O)/C=C/c1ccccc1O the screen gave TPP: inactive; SAM-II: inactive.
With CCc1c2c(nc3ccc(OC(=O)N4CCC(N5CCCCC5)CC4)cc13)-c1cc3c(c(=O)n1C2)COC(=O)[C@]3(O)CC the screen gave TPP: inactive; SAM-II: inactive.
With CNCC(=O)NCCSc1ccc(Cl)cc1 the screen gave TPP: inactive; SAM-II: inactive.
With Cc1ccnc(NCc2ccc(Br)cc2)c1 the screen gave TPP: inactive; SAM-II: inactive.

Some entries from above, unchanged:

SMILES	TPP	SAM-II
O=C(O)C1(Oc2ccc3ccccc3c2)CCN(C2CCNCC2)CC1	inactive	inactive
COc1ccccc1NC(=O)c1cc2ccccc2cc1O	inactive	inactive

Data from the ROBIN nucleic acid binder screens, doi:10.1002/anie.202211358.